Reference: PubChem BioAssay AID504327 (National Center for Advancing Translational Sciences (NCATS), 2011)
Among all 390,000 compounds or so, about 820 (0.21%) were called active. Inconclusive results, whose numbers are uncertain, are shown with a selection of clear calls. The call rests on the fitted dose curve; in most records, active means well fitted inhibition curve with a large enough effect; inconclusive means small, poorly fitted or top-dose-only effect, or another doubt; inactive means no such curve, though single readings can be large or run the other way. A potency beside an inconclusive call is a rough fit, not a confirmed value.

Chains of the proteins cited; added tags and fusions are not shown.
UniProt Q92830, whole entry, looked up: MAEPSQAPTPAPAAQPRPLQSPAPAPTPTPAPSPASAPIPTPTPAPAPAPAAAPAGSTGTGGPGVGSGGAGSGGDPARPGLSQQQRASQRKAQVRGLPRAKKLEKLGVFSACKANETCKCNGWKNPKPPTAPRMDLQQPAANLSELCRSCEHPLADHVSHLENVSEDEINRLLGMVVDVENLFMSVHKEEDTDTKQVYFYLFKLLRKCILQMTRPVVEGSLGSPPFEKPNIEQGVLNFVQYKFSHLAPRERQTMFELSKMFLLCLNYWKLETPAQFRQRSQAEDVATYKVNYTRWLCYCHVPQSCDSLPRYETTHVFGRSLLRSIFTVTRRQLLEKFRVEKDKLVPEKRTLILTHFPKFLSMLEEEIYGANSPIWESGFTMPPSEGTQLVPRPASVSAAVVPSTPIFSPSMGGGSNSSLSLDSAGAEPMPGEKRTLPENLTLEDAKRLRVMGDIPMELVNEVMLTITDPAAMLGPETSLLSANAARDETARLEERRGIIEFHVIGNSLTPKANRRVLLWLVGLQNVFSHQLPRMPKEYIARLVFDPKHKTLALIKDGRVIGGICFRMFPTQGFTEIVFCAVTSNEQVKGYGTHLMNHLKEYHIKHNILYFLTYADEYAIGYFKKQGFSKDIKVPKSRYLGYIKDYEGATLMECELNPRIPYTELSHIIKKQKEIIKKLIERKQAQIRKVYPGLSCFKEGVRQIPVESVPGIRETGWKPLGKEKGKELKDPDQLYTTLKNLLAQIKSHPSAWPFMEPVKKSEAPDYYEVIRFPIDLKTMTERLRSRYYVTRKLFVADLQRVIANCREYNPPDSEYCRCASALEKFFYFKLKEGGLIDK

What follows are compounds tested against Histone acetyltransferase KAT2A (Homo sapiens) (UniProt Q92830) (assay: qHTS Assay for Inhibitors of GCN5L2). Conditions: GCN5L2 HAT assay, ThioGlo1 CoA-SH fluorescence; activity change, negative = inhibition: at 58.9 µM (top of the series) unless noted.
Outline: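 Titration-based screen in which CoA formation is detected via maleimide probe ThioGlo1 (50uM) turning fluorescent on thiol reaction; substrates H3(1-25) 75uM and acetyl-CoA 70uM, GCN5L2 20nM, 20 min incubation at room temperature.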
On the % scale 0 is the no-effect control and ±100 the full control effect; potency means the concentration at half of the fitted maximal effect.

| SMILES | Potency | activity change, negative = inhibition |
| --- | --- | --- |
| COCCCNC(=O)CCS(=O)(=O)Cc1ccc(C)cc1 | inconclusive: 6.31 µM [inhibitor, single point] |  |
| CCOC(=O)Cc1cc(-c2ccc(F)cc2)nc2ccc3ccccc3c12 |  | inactive: 0.981% |
| COc1ccc(Cn2c(O)c(C=Nc3ccccc3C(=O)O)c3ccccc3c2=O)cc1 | inconclusive: 39.8 µM [inhibitor, single point] |  |
| CCCn1c(=O)c2ccccc2n2c(SCc3cc(=O)oc4ccc5ccccc5c34)nnc12 | inconclusive: 31.6 µM [inhibitor, single point] |  |
| CC(C)(C)OC(=O)N1CCC[C@H]1C(=O)Nc1ccc(C#N)cc1 | inconclusive: 8.91 µM [inhibitor, single point] |  |
| COCCn1c(-c2ccc(OC)cc2)nc2ccccc21 |  | inactive: -1.56% |
| Cc1ccc(NC(=O)C2CCN(S(=O)(=O)c3ccc4c(c3)NC(=O)C(C)S4)CC2)c(Cl)c1 (centres undefined) |  | inactive: -10% |
| O=C(c1cccs1)N1CCN(c2nnc(-c3ccccc3)c3ccccc23)CC1 | inconclusive: 6.31 µM [inhibitor, single point] |  |
| CC(C)n1c(SCC(=O)Nc2nncs2)nnc1-c1ccco1 | inconclusive: 39.8 µM [inhibitor, single point] |  |
| COC(=O)c1ccccc1NC(=O)CSCC(=O)Nc1ccccc1OC | inconclusive: 0.141 µM [inhibitor, full curve, poor fit] |  |
| COc1cc(OC)c(C2CC(=O)N3CN(c4ccccc4C)CSC3=C2C#N)cc1OC (centres undefined) | inconclusive: 22.4 µM [inhibitor, partial curve, poor fit] |  |
| O=C(O)CSc1nc2sc3c(c2c(=O)n1-c1ccccc1)CCC3 | inconclusive: 39.8 µM [inhibitor, single point] |  |
| Cc1sc2ncn(CC(=O)Nc3ccc(C(C)C)cc3)c(=O)c2c1S(=O)(=O)N1CCN(c2ncccn2)CC1 |  | inactive: -8.77% |
| CC(=O)NC(CCC(=O)O)C(=O)O (centres undefined) |  | inactive: -7.73% |
| CCCN(CCC)c1nc(N)c(C#N)c(CC#N)c1C#N |  | inconclusive: -31.7% [inhibitor] |
| O=C(COC(=O)/C=C/c1ccc(Br)o1)Nc1ccc2[nH]c(=O)[nH]c2c1 | inconclusive: 14.1 µM [inhibitor, partial curve] |  |
| COC(=O)c1sc(N2C(=O)C(O)=C(C(=O)c3ccc(C)o3)C2c2ccc([N+](=O)[O-])cc2)nc1C (centres undefined) | inconclusive: 3.16 µM [inhibitor, partial curve, poor fit] |  |
| O=C(CSc1ncnc2c1oc1ccccc12)Nc1nccs1 | inconclusive: 39.8 µM [inhibitor, single point] |  |
| CC(C)CNC(=S)N1CCC(c2nc(-c3ccc(F)cc3)no2)CC1 |  | inactive: -4.1% |
| CCOc1ccc(C2C=C(c3ccccc3)Nc3ncnn32)cc1 (centres undefined) | inconclusive: 39.8 µM [inhibitor, single point] |  |
| COc1ccc(-c2nnn(CC(=O)N(CCCN3CCOCC3)C(C(=O)NC3CCCC3)c3ccco3)n2)cc1 (centres undefined) | inconclusive: 5.01 µM [inhibitor, single point] |  |
| COc1ccc(-c2cc(C)nc(SCC(=O)c3cccc([N+](=O)[O-])c3)n2)cc1 | inconclusive: 28.2 µM [inhibitor, single point] |  |
| Cc1cc(C)c(C(=O)N2CCCC(CNS(=O)(=O)c3cccs3)C2)o1 (centres undefined) | inconclusive: 0.631 µM [inhibitor, full curve, poor fit] |  |

| SMILES | Potency | activity change, negative = inhibition |
| --- | --- | --- |
| COc1ccccc1NC(=O)c1c(NCc2ccc(C)o2)sc2c1CCCCC2 |  | inactive: -3.1% |
| Cc1ccc(NC(=O)CCc2nnc3ccc(NCc4ccco4)nn23)nc1 |  | inactive: -4.83% |
| CN1CCc2c(sc3c2C(=O)NC(c2ccc(C(C)(C)C)cc2)N3)C1 (centres undefined) |  | inactive: -4.79% |
| COc1cccc(C(O)c2nc3ccccc3n2C(C)C)c1OC (centres undefined) | inconclusive: 0.891 µM [inhibitor, single point] |  |
| CC(C)(C)C1CCc2oc3ccc(NS(=O)(=O)c4ccc(C(=O)O)cc4)cc3c2C1 (centres undefined) | inconclusive: 39.8 µM [inhibitor, single point] |  |
| Cc1nn(CC(=O)N2CCN(c3ccc(Cl)cc3)CC2)c(=O)c2cccn12 | inconclusive: 3.16 µM [inhibitor, single point] |  |
| CC(=O)Nc1ccc(-c2ccccc2)s1 | inconclusive: 0.631 µM [inhibitor, full curve, poor fit] |  |
| COc1ccc(NC(=O)CCC(=O)c2cc(C)sc2C)cc1 | inconclusive: 3.16 µM [inhibitor, partial curve] |  |
| Cc1ccc(C)c(N(CC(=O)NCCC2=CCCCC2)S(C)(=O)=O)c1 | inconclusive: 39.8 µM [inhibitor, single point] |  |
| CCOc1ccc(NC(=O)c2c(NC(=O)Cc3ccccc3)sc3c2CCCCC3)cc1 | inconclusive: 39.8 µM [inhibitor, single point] |  |
| O=C(Nc1c(C(=O)N2CCCCC2)cnn1-c1ccccc1)c1ccco1 | active: 17.8 µM |  |
| CCOc1ccc(-c2nnc3ccc(SCc4ccc(C(=O)OC)o4)nn23)cc1 |  | inconclusive: -41.7% [inhibitor] |
| COc1cc(OC)c(C2N(c3cc(C)on3)C(=O)C3CCCN32)cc1OC (centres undefined) | inconclusive: 39.8 µM [inhibitor, single point] |  |
| O=C(Cc1ccc([N+](=O)[O-])cc1)N1N=C2CCCCC2C1(O)C(F)(F)F (centres undefined) | inconclusive: 39.8 µM [inhibitor, partial curve] |  |
| COc1ccc(NC(=O)CSc2nc3c(oc4ccccc43)c(=O)n2Cc2ccco2)cc1Cl |  | inactive: -2.99% |
| CC1CCN(S(=O)(=O)c2nnc(NC(=O)c3cccc(Cl)c3)s2)CC1 | inconclusive: 7.08 µM [inhibitor, single point] |  |
| CCOC(=O)/C(C#N)=c1/s/c(=C2\C=Cc3ccccc3N2CC)c(=O)n1CC | inconclusive: 0.708 µM [inhibitor, single point] |  |
| On1c2c(c3c4nonc4ccc31)CCCC2 |  | inactive: -11.6% |
| O=C(NCCO)c1cc2cc(Cl)cc(Cl)c2oc1=O | inconclusive: 28.2 µM [inhibitor, single point] |  |
| O=[N+]([O-])c1cccc2c(Br)[nH]nc12 | inconclusive: 39.8 µM [inhibitor, single point] |  |
| COCCn1c(Sc2nc(C)cs2)nc2c1c(=O)[nH]c(=O)n2C | inconclusive: 1.12 µM [inhibitor, partial curve, poor fit] |  |
| O=C(O)c1cccc(N/N=C/C2=C(Cl)c3cc(Cl)ccc3SC2)c1 | active: 28.2 µM |  |
| COc1ccc(CCNC(=O)CCn2c(=O)c3ccccc3n(Cc3ccccc3)c2=O)cc1OC |  | inactive: -3.71% |

Sorted by count of non-hydrogen atoms (ascending): part of the list above.

| SMILES | Potency | activity change, negative = inhibition |
| --- | --- | --- |
| CC1CCN(S(=O)(=O)c2nnc(NC(=O)c3cccc(Cl)c3)s2)CC1 | inconclusive: 7.08 µM [inhibitor, single point] |  |
| COc1cc(OC)c(C2N(c3cc(C)on3)C(=O)C3CCCN32)cc1OC (centres undefined) | inconclusive: 39.8 µM [inhibitor, single point] |  |
| CCOc1ccc(NC(=O)c2c(NC(=O)Cc3ccccc3)sc3c2CCCCC3)cc1 | inconclusive: 39.8 µM [inhibitor, single point] |  |
| COc1ccc(NC(=O)CSc2nc3c(oc4ccccc43)c(=O)n2Cc2ccco2)cc1Cl |  | inactive: -2.99% |
| COc1ccc(CCNC(=O)CCn2c(=O)c3ccccc3n(Cc3ccccc3)c2=O)cc1OC |  | inactive: -3.71% |

(cont.)

| SMILES | Potency | activity change, negative = inhibition |
| --- | --- | --- |
| CC(C)c1ccc(NC(=O)CSc2nc3ccsc3c(=O)n2Cc2ccc(C(=O)O)cc2)cc1 | inconclusive: 44.7 µM [inhibitor, partial curve, poor fit] |  |
| COc1ccc(N2CCN(C(=O)CCc3c[nH]c4ccccc34)CC2)cc1 |  | inactive: 1.07% |
| N#Cc1cnn(-c2cccc(Cl)c2)c1-n1cccc1 | inconclusive: 8.91 µM [inhibitor, single point] |  |
| COC(=O)CSc1nnc(CSc2nc(C)cc(C)n2)n1Cc1ccco1 |  | inactive: -23.5% |
| Cc1ccc(NC(=O)CN2C(=O)N/C(=C/c3cc(C)n(-c4cccc(C(=O)O)c4)c3C)C2=O)cc1 | inconclusive: 25.1 µM [inhibitor, partial curve] |  |
| COc1cc(-c2nnc(SCc3cc(=O)oc4cc(O)c(O)cc34)o2)cc(OC)c1OC | inconclusive: 12.6 µM [inhibitor, partial curve] |  |
| CSc1ccc(S(=O)(=O)NC2CC3CCC2C3)cc1 (centres undefined) | inconclusive: 3.55 µM [inhibitor, single point] |  |
| CCOc1ccc(/C=C/[N+](=O)[O-])c2ccccc12 | inconclusive: 6.31 µM [inhibitor, single point] |  |
| Cc1cc(C)c(NC(=O)C(C)n2nnc3sc4c(c3c2=O)CCCC4)c(C)c1 (centres undefined) |  | inactive: -7.31% |
| O=C(CSc1nc2ccccc2c(=O)n1Cc1ccco1)Nc1cccc(O)c1 |  | inactive: -11.4% |
| COCCNC(=O)CSc1nc2cc(OC)c(OC)cc2c(=O)n1Cc1ccc(OC)cc1 | inconclusive: 39.8 µM [inhibitor, partial curve, poor fit] |  |
| CC(=O)c1ccc(NC(=O)COC(=O)c2ccccc2Nc2ccccc2)cc1 | inconclusive: 28.2 µM [inhibitor, single point] |  |
| Cc1cc(-c2nc3c4c5c(sc4[nH]c(=O)n3n2)CCC5)c(C)o1 | inconclusive: 39.8 µM [inhibitor, single point] |  |
| CCC(=O)N1CCc2cc(S(=O)(=O)CCC(=O)Nc3ccc(F)c(F)c3)ccc21 |  | inactive: -0.81% |
| O=C(NCc1ccc(OC(F)(F)F)cc1)C1CCC(=O)N(C2CC2)C1 (centres undefined) | inconclusive: 2.51 µM [inhibitor, single point] |  |
| C(=C1/CCCC2=C1Nc1ncnn1C2c1ccccc1)/c1ccccc1 (centres undefined) |  | inactive: 0.104% |
| C=CCSc1ncc(C(=O)OCC)c(N)n1 |  | inactive: 1.86% |
| COc1ccc(/C=C/C(=O)c2ccccc2)cc1COc1ccc(F)cc1 | inconclusive: 31.6 µM [inhibitor, single point] |  |
| Cc1ccc(CNC(=O)[C@@H](NC(=O)C2CCN(C(=O)[C@@H]3CCCN3)CC2)C(C)C)cc1 | inconclusive: 31.6 µM [inhibitor, single point] |  |
| CCOC(=O)C1CCCN(Cc2ccc3c(c2)OCO3)C1 (centres undefined) |  | inactive: 1.59% |
| COc1cccc(-n2c(C)cc(/C=C3/C(=N)N4C(=NC3=O)SN=C4S(C)(=O)=O)c2C)c1 | inconclusive: 35.5 µM [inhibitor, single point] |  |
| COc1cc(/C=N/N=C(N)N)ccc1OCc1ccccc1Cl |  | inactive: -6.9% |
| COc1ccccc1CN(C)C(=O)COC(=O)c1c(C)noc1C |  | inactive: -2.93% |
